This note sets out measurements from PMC4536990 (Oncotarget, 2015).

End groups of sequences in plain letters are not given here. Bounds are passed on as bounds.

The data set is described as follows: peptide made by a vendor (Fmoc solid-phase peptide synthesis). Particulars: whole synthesis.

For the sequence FIHHIIGGLFSAGKAIHRLIRRRRR, the “final HPLC purity” value is recorded as >95%.
